No constants are given. Whether binding was seen depends on the method and setting. Some entries that bind do so weakly or less than the wild type.
Experiments:
[1] = molecular target: C-SLPI (C-terminal cleavage product of mature human SLPI, made by incubating recombinant SLPI with neutrophil elastase) (human) (UniProt P03973); test: hybridoma clone screening
[2] = molecular target: C-SLPI (C-terminal cleavage product of mature human SLPI, made by incubating recombinant SLPI with neutrophil elastase) (human) (UniProt P03973); test: sandwich ELISA, hybridoma supernatant as capture
[3] = molecular target: C-SLPI (C-terminal cleavage product of mature human SLPI, made by incubating recombinant SLPI with neutrophil elastase) (human) (UniProt P03973); test: sandwich ELISA on CF sputum samples, C5.5 supernatant as capture

By UniProt entry, the sequences of proteins in these tests, tags left out. Where a name states a change or a piece, a line headed by the entry shows the natural chain unless it says otherwise.
UniProt P03973: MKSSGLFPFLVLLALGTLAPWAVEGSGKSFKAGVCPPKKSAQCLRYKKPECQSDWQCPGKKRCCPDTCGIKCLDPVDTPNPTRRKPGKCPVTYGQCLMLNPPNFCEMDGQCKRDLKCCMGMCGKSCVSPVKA

Measured: binding

B1: C5.5 monoclonal antibody (supernatant of hybridoma clone C5.5) (antibody, V domains shown)
VH: EVQLVESGGGLVHPQGSLKLSCTASGFTFNTYDMNWVRQAPGKGLEWVARIRTKSYYYATYYADSVKDRFTISRDDSQTMLYLQLNNLKTEDTALYYCVRRSGNYGAMDYWGQGTSVTVSS
VL: QIVLTQSPAIMSASLGERVTMTCTASSSVSSSYLHWYQQKPGSSPKLWIYSTSNLASGVPARFSGSGSGTSYSLTISSMEAEDAATYYCHQYHRSPRTFGGGTKLEIK
notes: Used as cell-free hybridoma supernatant coated on the plate (capture antibody); also called C5.5 supernatant
binds: all assays above
